Reference: patent US20130330359A1
Substitutions are numbered along the chain they refer to. Results are given in words; binding and its absence hold for the method and conditions named. Some binding calls cover weakened binding; strength is not graded here. Blank lines part the entries; values can stand above or below the binder they belong to.

The chains behind the UniProt entries cited, without tags or fusion partners. Residues count along the entry.
UniProt Q6ZVN8, residues 36-400: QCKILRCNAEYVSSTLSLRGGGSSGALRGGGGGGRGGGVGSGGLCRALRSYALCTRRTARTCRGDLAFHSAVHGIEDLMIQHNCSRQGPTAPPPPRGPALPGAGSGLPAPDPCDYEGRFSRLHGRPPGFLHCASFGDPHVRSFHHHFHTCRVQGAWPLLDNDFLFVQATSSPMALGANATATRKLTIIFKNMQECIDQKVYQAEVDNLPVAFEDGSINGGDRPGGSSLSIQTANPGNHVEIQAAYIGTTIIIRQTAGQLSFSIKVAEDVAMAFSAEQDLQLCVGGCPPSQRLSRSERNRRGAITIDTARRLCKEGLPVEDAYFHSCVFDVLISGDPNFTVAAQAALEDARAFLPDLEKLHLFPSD

Molecular target: carrier free RGMc (R&D Systems) (human) (UniProt Q6ZVN8)
Test: direct EIA on coated carrier-free RGMc (Table 6)

- binding: binds
B1: 1A-2860-475 (antibody, V domains shown)
VH: DVLLQESGPDLVKPSQSLSLTCTVTGYSISSGYSWHWIRQFPGNKLEWMAYIHYTGNTNYNPSLKSRISITRDTSKNQFFLHLNSVTTEDTATYYCALFGLSGFWGQGTLVTVSA
VL: DVLMTQTPLSLPVSLGDQASISCRSSQTIVHSNGNTYLDWYLQKPGQSPKVLIYKVSNRFSGVPDRFSGSGSGTDFTLKISRVEAEDLGVYFCLQGSHVPWTFGGGTQLEIKR

- binding: binds
B2: 1B-3363-715 (antibody, V domains shown)
VH: DVQLQESGPDLVKPSQSLSLTCTVTGYSITSGYSWHWIRQFPGNKLEWMGYIHYSGNTDYNPSLKSRISFTRDTSKNQFFLQLNSVTTEDTATYFCAIGTGPWGQGTTLTVSS
VL: B1 VL with T28N, N35H, D39E, V51L, F92Y, L94F, Q108K
